These are yes or no findings as the source states them, for the method shown. Binding seen in cells or lysates may run through a third protein. Some results given as binding are weak or reduced against the parent protein; the word gives no strength. Where a sequence is shown, tags or fusion partners need not be part of it.

Sequences and labels used below:
T1: C-terminal His-tagged PBP1a (pBAD-based plasmid) (Escherichia coli) (UniProt P02918)
T1 sequence: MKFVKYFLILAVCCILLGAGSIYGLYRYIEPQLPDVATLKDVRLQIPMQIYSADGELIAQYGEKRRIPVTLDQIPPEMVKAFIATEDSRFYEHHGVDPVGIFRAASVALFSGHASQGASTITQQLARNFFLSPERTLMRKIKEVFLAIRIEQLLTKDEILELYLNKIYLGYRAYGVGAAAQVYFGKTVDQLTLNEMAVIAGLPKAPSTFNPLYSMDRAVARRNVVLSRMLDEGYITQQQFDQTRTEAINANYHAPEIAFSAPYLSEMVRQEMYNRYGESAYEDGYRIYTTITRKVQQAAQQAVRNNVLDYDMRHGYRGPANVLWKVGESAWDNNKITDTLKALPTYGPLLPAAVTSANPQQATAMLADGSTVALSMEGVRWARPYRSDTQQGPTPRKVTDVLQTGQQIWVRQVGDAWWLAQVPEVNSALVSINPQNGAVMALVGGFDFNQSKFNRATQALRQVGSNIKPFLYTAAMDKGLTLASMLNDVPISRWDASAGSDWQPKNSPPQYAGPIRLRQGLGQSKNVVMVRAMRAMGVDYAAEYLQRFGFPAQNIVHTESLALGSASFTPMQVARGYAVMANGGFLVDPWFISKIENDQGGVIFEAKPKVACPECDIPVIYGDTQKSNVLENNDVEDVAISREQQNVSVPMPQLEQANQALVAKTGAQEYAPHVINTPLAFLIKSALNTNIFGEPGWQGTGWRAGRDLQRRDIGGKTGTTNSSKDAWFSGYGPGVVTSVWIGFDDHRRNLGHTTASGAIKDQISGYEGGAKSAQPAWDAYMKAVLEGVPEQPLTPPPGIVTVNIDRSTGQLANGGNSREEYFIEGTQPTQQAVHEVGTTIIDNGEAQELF

T2: C-terminal His-tagged PBP1b (pBAD-based plasmid) (Escherichia coli) (UniProt P02919)
T2 sequence: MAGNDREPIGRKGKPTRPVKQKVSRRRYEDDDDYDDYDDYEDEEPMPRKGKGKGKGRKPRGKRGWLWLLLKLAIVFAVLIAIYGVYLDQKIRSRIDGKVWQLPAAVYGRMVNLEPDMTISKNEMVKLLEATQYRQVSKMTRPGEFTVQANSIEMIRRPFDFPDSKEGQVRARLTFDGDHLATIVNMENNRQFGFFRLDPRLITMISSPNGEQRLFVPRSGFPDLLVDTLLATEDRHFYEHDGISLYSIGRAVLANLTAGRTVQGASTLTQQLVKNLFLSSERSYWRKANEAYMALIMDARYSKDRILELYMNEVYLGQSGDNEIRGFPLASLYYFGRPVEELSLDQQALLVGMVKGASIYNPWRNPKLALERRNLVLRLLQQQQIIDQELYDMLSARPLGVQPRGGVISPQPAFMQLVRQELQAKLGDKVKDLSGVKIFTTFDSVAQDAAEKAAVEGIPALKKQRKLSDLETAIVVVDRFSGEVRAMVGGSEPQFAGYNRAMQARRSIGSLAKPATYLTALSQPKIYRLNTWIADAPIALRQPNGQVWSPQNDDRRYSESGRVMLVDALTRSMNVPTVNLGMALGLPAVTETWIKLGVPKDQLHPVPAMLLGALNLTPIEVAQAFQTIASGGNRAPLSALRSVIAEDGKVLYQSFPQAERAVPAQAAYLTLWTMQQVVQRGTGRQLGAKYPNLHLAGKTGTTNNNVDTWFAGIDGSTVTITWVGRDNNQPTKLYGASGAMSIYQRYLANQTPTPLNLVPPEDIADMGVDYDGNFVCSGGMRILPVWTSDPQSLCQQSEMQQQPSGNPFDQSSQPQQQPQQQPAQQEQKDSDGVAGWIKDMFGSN

T3: C-terminal His-tagged PBP2 (pBAD-based plasmid) (Escherichia coli) (UniProt P0AD65)
T3 sequence: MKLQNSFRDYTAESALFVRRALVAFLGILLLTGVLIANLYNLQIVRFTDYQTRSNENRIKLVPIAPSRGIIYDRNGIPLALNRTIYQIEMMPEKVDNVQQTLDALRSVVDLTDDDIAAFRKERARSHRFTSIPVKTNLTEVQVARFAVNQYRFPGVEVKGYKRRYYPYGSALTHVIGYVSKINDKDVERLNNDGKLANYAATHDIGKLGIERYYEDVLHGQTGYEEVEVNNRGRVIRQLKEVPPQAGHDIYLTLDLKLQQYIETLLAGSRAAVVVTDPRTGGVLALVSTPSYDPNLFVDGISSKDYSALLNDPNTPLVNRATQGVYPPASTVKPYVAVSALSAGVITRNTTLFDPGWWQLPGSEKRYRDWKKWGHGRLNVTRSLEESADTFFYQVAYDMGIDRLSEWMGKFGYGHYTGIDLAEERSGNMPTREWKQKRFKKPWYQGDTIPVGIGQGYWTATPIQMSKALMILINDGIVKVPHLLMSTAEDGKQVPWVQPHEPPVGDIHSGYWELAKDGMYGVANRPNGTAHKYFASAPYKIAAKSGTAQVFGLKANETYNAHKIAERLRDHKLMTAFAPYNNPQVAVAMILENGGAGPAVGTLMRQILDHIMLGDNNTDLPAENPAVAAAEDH

T4: C-terminal His-tagged PBP3 (pBAD-based plasmid) (Escherichia coli) (UniProt P0AD68)
T4 sequence: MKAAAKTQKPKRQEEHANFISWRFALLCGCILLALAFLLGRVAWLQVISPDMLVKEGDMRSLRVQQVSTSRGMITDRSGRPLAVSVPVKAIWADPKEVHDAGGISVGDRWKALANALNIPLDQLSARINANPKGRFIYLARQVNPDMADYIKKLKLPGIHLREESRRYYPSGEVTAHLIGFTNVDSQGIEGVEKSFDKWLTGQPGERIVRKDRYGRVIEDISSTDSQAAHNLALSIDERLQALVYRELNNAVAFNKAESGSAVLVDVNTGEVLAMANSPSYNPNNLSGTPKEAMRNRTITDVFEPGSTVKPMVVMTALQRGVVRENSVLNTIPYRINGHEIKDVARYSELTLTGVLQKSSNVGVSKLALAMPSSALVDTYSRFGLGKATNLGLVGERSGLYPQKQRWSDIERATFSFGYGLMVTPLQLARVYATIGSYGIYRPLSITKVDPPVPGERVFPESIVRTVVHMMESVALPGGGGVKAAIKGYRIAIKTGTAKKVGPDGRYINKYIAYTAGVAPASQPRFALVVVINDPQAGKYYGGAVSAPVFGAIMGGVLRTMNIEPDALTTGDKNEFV

B1: DacC-Flag (chromosomal DacC with C-terminal 3xFlag, strain MG1655 DacC-Flag) (enzyme, UniProt P08506 28-400)
chain: AEQTVEAPSVDARAWILMDYASGKVLAEGNADEKLDPASLTKIMTSYVVGQALKADKIKLTDMVTVGKDAWATGNPALRGSSVMFLKPGDQVSVADLNKGVIIQSGNDACIALADYVAGSQESFIGLMNGYAKKLGLTNTTFQTVHGLDAPGQFSTARDMALLGKALIHDVPEEYAIHKEKEFTFNKIRQPNRNRLLWSSNLNVDGMKTGTTAGAGYNLVASATQGDMRLISVVLGAKTDRIRFNESEKLLTWGFRFFETVTPIKPDATFVTQRVWFGDKSEVNLGAGEAGSVTIPRGQLKNLKASYTLTEPQLTAPLKKGQVVGTIDFQLNGKSIEQRPLIVMENVEEGGFFGRVWDFVMMKFHQWFGSWFS
B2: DacC(ΔC)-Flag (chromosomal DacC without the C-terminal membrane-anchoring domain, strain MG1655 DacC(ΔC)-Flag) (domain or fragment, UniProt P08506 28-378)
chain: AEQTVEAPSVDARAWILMDYASGKVLAEGNADEKLDPASLTKIMTSYVVGQALKADKIKLTDMVTVGKDAWATGNPALRGSSVMFLKPGDQVSVADLNKGVIIQSGNDACIALADYVAGSQESFIGLMNGYAKKLGLTNTTFQTVHGLDAPGQFSTARDMALLGKALIHDVPEEYAIHKEKEFTFNKIRQPNRNRLLWSSNLNVDGMKTGTTAGAGYNLVASATQGDMRLISVVLGAKTDRIRFNESEKLLTWGFRFFETVTPIKPDATFVTQRVWFGDKSEVNLGAGEAGSVTIPRGQLKNLKASYTLTEPQLTAPLKKGQVVGTIDFQLNGKSIEQRPLIVMENVEEGG
B3: DacA-Flag (chromosomal DacA with C-terminal 3xFlag, strain MG1655 DacA-Flag) (enzyme, UniProt P0AEB2 30-403)
chain: DDLNIKTMIPGVPQIDAESYILIDYNSGKVLAEQNADVRRDPASLTKMMTSYVIGQAMKAGKFKETDLVTIGNDAWATGNPVFKGSSLMFLKPGMQVPVSQLIRGINLQSGNDACVAMADFAAGSQDAFVGLMNSYVNALGLKNTHFQTVHGLDADGQYSSARDMALIGQALIRDVPNEYSIYKEKEFTFNGIRQLNRNGLLWDNSLNVDGIKTGHTDKAGYNLVASATEGQMRLISAVMGGRTFKGREAESKKLLTWGFRFFETVNPLKVGKEFASEPVWFGDSDRASLGVDKDVYLTIPRGRMKDLKASYVLNSSELHAPLQKNQVVGTINFQLDGKTIEQRPLVVLQEIPEGNFFGKIIDYIKLMFHHWFG

The first test concerns the target T1, C-terminal His-tagged PBP1a (pBAD-based plasmid) (Escherichia coli). Briefly: pull-down.
As for B1, the binding entry is given as “binds”.

As for B2, the binding result is given as “no binding”.

On to B3, for which the binding entry is reported as “binds”.

In a further test the target is T2, C-terminal His-tagged PBP1b (pBAD-based plasmid) (Escherichia coli). Briefly: pull-down.
On to B1, for which the binding result is listed as “binds”.

Regarding B2, the binding entry is on record as “no binding”.

Turning to B3, the binding result was “binds”.

A further test has as its target T3, C-terminal His-tagged PBP2 (pBAD-based plasmid) (Escherichia coli). In words: pull-down.
For the molecule B1, the binding entry is given as “binds”.

B2: the binding entry is on record as “binds”.

On to B3, for which the binding result is on record as “binds”.

The target of a further test is T4, C-terminal His-tagged PBP3 (pBAD-based plasmid) (Escherichia coli). In words: pull-down.
In the case of B1, the binding entry is “binds”.

Turning to B2, the binding result is “no binding”.

With B3, the binding result is listed as “binds”.

Source of the values: publication doi:10.1101/2022.09.06.506770.
